PubChem BioAssay AID1159601 | NIAID – 2016

Purpose: 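Which toll-like receptor pathway genes are needed for TNF promoter activation by Pam3CSK4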 (primary screen)
Cell system: human THP-1 reporter cells differentiated with PMA into macrophage-like cells
Knock-down reagent: single siRNA against human genes
Timing: ligand added 4 hours before read-out; cells assayed 48 to 72 hours after siRNA transfection
Conditions: Pam3CSK4 (TLR2 ligand) for 4 hours; dose not given
Measured: 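TNF promoter dual-luciferase ratio measured 4 h after Pam3CSK4, converted to robust z-scores against negative controls and averaged across replicates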
Reading the numbers: TNF reporter z-score: higher = stronger TNF promoter reporter activity
Call rule: 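Grade increases with absolute z-score, cut points 1, 1.5, 2 and 2.5, both signs; rows called active have z near or beyond ±1.5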
Calls: active = clear change (up or down); inactive = little change
The whole screen tested 756 reagents; this is an unselected part. 143 of them (19%) count as active. 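Calls include both lowered and raised reporter signal; each row is a single siRNA, not a gene summary; Pam3CSK4 dose not stated.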 Entries without a mark were called inactive. Reagents against one gene are numbered here. The record does not give: the amount of reagent.

gene symbol,reagent,"TNF reporter z-score, replicate mean"
PTK2B,1,0.386
PTK2B,2,-1.43
PTK2B,3,0.701
PTK2B,4,-1.32
PTK2B,5,-1.09
PTK2B,6,-0.418
IFNB1,1,-1.21
IFNB1,2,0.015
IFNB1,3,-1.51 (active)
IFNB1,4,-0.744
IFNB1,5,-1.69 (active)
IFNB1,6,-1.99 (active)
ATF7,1,-1.86 (active)
ATF7,2,-0.784
ATF7,3,-1.11
ATF7,4,-1.03
ATF7,5,-2.25 (active)
ATF7,6,-0.847
PIK3CG,1,-1.13
PIK3CG,2,-0.426
PIK3CG,3,-0.731
PIK3CG,4,-0.346
PIK3CG,5,0.151
PIK3CG,6,-1.76 (active)
TLR8,1,0.416
TLR8,2,1.15
TLR8,3,-0.776
TLR8,4,-1.68 (active)
TLR8,5,0.672
TLR8,6,-0.403
IRF3,1,-0.48
IRF3,2,-0.314
IRF3,3,-1.08
IRF3,4,1.13
IRF3,5,-1.45
IRF3,6,-0.272
TAB1,1,-1.07
TAB1,2,-1.97 (active)
TAB1,3,-0.204
TAB1,4,-1.31
TAB1,5,-1.52 (active)
TAB1,6,-2.11 (active)
TAB2,1,0.0323
TAB2,2,-1.97 (active)
TAB2,3,-2.38 (active)
TAB2,4,-2.07 (active)
TAB2,5,-5.38 (active)
TAB2,6,-2.08 (active)
MAP2K4,1,-1.67 (active)
MAP2K4,2,-1.77 (active)
MAP2K4,3,-0.718
MAP2K4,4,-0.225
MAP2K4,5,0.158
MAP2K4,6,0.127
MAPK11,1,-0.126
MAPK11,2,-0.662
MAPK11,3,-0.0964
MAPK11,4,0.038
MAPK11,5,1.28
MAPK11,6,0.0131
IL1B,1,-0.289
IL1B,2,-0.432
IL1B,3,-1.3
IL1B,4,-0.537
IL1B,5,-1.57 (active)
IL1B,6,-0.325
PIK3R5,1,-0.862
PIK3R5,2,-0.751
PIK3R5,3,0.894
PIK3R5,4,-0.853
PIK3R5,5,0.571
PIK3R5,6,-1.06
CYLD,1,-0.176
CYLD,2,-0.758
CYLD,3,0.274
CYLD,4,-0.106
CYLD,5,0.254
CYLD,6,-0.587
RIPK3,1,-0.701
RIPK3,2,-0.602
RIPK3,3,0.804
RIPK3,4,-0.13
RIPK3,5,-0.931
RIPK3,6,-0.39
CASP8,1,-0.392
CASP8,2,-0.304
CASP8,3,0.655
CASP8,4,-0.6
CASP8,5,-0.31
CASP8,6,-0.904
FOS,1,-0.605
FOS,2,-0.792
FOS,3,1.12
FOS,4,-0.635
FOS,5,-0.427
FOS,6,1.51 (active)
NFKB2,1,-0.000724
NFKB2,2,-0.425
NFKB2,3,1.77 (active)
NFKB2,4,-0.0495
NFKB2,5,-1.44
NFKB2,6,0.471
PIK3R3,1,0.755
PIK3R3,2,0.225
PIK3R3,3,-0.706
PIK3R3,4,-0.677
PIK3R3,5,1.57 (active)
PIK3R3,6,-1.26
IL12A,1,0.118
IL12A,2,-0.924
IL12A,3,0.323
IL12A,4,0.0616
IL12A,5,-0.655
IL12A,6,-0.686

Taken from above.
For “TNF reporter z-score, replicate mean”, TAB1 #4 has -1.31
MAPK11 #6, TNF reporter z-score, replicate mean = 0.0131
Entry for IFNB1 #4 under “TNF reporter z-score, replicate mean”: -0.744
TAB1 #5, TNF reporter z-score, replicate mean: -1.52 (active)
MAP2K4 #1, TNF reporter z-score, replicate mean: -1.67 (active)
Under “TNF reporter z-score, replicate mean”, NFKB2 #5 reads -1.44
